Results of single-concentration screens

Amino acid sequences for entries named in this document (tags omitted). Residues count along the entry.
UniProt A4I591, 1-473: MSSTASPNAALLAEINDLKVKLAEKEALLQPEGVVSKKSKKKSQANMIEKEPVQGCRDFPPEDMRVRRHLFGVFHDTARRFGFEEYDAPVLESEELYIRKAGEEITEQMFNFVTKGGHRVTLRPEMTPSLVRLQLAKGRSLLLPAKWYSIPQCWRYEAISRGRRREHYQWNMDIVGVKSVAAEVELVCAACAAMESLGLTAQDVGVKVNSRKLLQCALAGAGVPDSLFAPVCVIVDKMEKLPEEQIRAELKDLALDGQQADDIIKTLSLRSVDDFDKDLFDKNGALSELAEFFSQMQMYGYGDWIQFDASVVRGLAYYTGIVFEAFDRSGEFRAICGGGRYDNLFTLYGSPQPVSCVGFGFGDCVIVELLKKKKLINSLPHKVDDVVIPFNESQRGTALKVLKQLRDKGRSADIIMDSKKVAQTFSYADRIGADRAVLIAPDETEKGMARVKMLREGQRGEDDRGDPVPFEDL
UniProt P9WFT3, whole entry: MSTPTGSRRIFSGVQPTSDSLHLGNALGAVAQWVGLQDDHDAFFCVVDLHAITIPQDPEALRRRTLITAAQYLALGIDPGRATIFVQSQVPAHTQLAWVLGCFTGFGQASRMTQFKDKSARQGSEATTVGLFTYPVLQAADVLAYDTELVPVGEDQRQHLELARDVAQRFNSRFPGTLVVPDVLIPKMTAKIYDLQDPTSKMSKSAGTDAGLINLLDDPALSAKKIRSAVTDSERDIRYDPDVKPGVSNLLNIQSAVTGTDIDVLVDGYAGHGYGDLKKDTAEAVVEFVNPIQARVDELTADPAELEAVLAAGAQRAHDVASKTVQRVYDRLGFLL

LiHisRS: 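Histidine-tRNA ligase, Leishmania infantum (UniProt A4I591). Enzyme assay of histidyl-tRNA synthetase; the read-out is not stated. Tested at 30 µM. Direction is inferred from retests: higher values go with stronger inhibition. The assay is labelled LdHisRS but filed under L. infantum. About 69,000 compounds were tested under these conditions; 0.6% (about 410) showed 50% or more at least once.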
MtTrpRS: 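Enzyme assay of tryptophanyl-tRNA synthetase; the read-out is not stated. Target: Tryptophan-tRNA ligase, Mycobacterium tuberculosis (UniProt P9WFT3). Concentration: 10 µM. Direction is not recorded; retested compounds ran higher, which suggests that high means inhibition. Size under these conditions: about 65,000 compounds, about 64 of them at 50% or above in at least one test.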

Values are the deposited “Percent Effect”, in %. How 0% and 100% were set is not recorded. Most values in the screen are low, and negative values occur. The compounds are a random part of those screened.

N[C@@H]1CC[C@H](C(=O)NCCc2nc(-c3ccccc3)cs2)C1 read LiHisRS: 0%; MtTrpRS: 1.687%.
CCc1ccc(NC(=O)N2C[C@H]3CC[C@@]4(N=C(C)N(C)C4=O)[C@H]3C2)cc1 read LiHisRS: 24.69%; MtTrpRS: 3.342%.
Cc1ccc(C(=O)N2CCn3c(COCC4CC4)cnc3C2C)nc1 (stereo unspecified) read LiHisRS: 9.091%; MtTrpRS: 0.1744%.
CN1C(=O)CC(C(=O)O)C12CCN(c1ccc3cccc(Cl)c3n1)CC2 (stereo unspecified) read LiHisRS: 16.39%; MtTrpRS: 2.093%.
Cc1nc2c(c(NC(C)C)n1)CCN(C(=O)c1cc[nH]n1)CC2 read LiHisRS: 5.983%; MtTrpRS: 0.2116%.
CC(CNC(=O)NCc1ccsc1)CC1(C)OCCO1 (stereo unspecified) read LiHisRS: 12.68%; MtTrpRS: 2.926%.
C[C@@H]1CN(Cc2cc(C3CCCCC3)no2)CC[C@@]1(O)C1CC1 read LiHisRS: -3.419%; MtTrpRS: 1.784%.
CC(NC(=O)N1CCC(n2cncn2)CC1)c1ccc(F)cc1 (stereo unspecified) read LiHisRS: 7.273%; MtTrpRS: -4.664%.
Cc1ccc(S(=O)(=O)Nc2c(C)nc(N3CCCC3)nc2C)cc1 read LiHisRS: 12.17%; MtTrpRS: -2.964%.
Cc1cnn(Cc2cc(F)ccc2F)c1NC(=O)CNC(=O)C1CC1 read LiHisRS: 9.677%; MtTrpRS: -3.62%.
Cc1cc2n(n1)CC(CNCc1cnn(C)c1)CN2 (stereo unspecified) read LiHisRS: 7.018%; MtTrpRS: 2.542%.
Cc1cc(N2CCN(CC(=O)N(C)C)CC2)nc(-c2ccncc2)n1 read LiHisRS: 51.43%; MtTrpRS: 9.216%.
Cc1nc(C)n(CC2CCCN2Cc2nc3ccccc3s2)n1 (stereo unspecified) read LiHisRS: 20%; MtTrpRS: -0.1278%.
CCOCCC(=O)N(C)CC1Cc2ccccc2CN1C (stereo unspecified) read LiHisRS: 6.349%; MtTrpRS: 3.303%.
Cc1ncc(-c2ccnc(NCCO)n2)c(C2CCCCC2)n1 read LiHisRS: 5.714%.
Cc1ccc(N2CC3(CCN(Cc4nccn4C)C3)CC2=O)s1 (stereo unspecified) read LiHisRS: 17%; MtTrpRS: -0.9856%.
CC1CCCCN1C(=O)c1ccc2c(c1)OCCCO2 (stereo unspecified) read LiHisRS: 16.67%; MtTrpRS: -0.3112%.
CC(C)(C)c1nnc(CN2CCC(c3cc4ccccc4[nH]3)CC2)o1 read LiHisRS: 27.4%; MtTrpRS: 3.343%.
Cc1noc(C)c1CN1CCn2cc(CN3CCCC3)nc2C1 read LiHisRS: 21.15%.
O=C(Cn1cccn1)NCC1CCCN(Cc2ccccc2)C1 (stereo unspecified) read LiHisRS: 15.08%; MtTrpRS: -2.913%.
Cc1c(Br)cccc1CSc1nnc(CO)n1C read LiHisRS: 20%; MtTrpRS: 5.882%.
Cc1ccc(O)c(C(=O)N2CCOCC2c2c(C)n[nH]c2C)c1 (stereo unspecified) read LiHisRS: 4.63%; MtTrpRS: -6.818%.
Cc1cnc(C)c(-c2cc(O)c3c(c2)CN(c2ncccn2)CCO3)n1 read LiHisRS: 9.167%; MtTrpRS: -0.7236%.
O=C(c1ccc(Cl)s1)N1CCC2(CNS(=O)(=O)c3cnccc3O2)C1 (stereo unspecified) read LiHisRS: 23.45%; MtTrpRS: 10.11%.
COCc1nn(CC2CC2)c2c1CN(Cc1cncn1C)CC2 read LiHisRS: 3.883%; MtTrpRS: -4.77%.
Cc1ccc(S(=O)(=O)NCCNc2cc(-n3cccc3)ncn2)c(C)c1 read LiHisRS: 19.13%; MtTrpRS: 2.508%.
CN(C)CC(=O)N1Cc2cc(-c3cc[nH]n3)ccc2C1c1cnco1 (stereo unspecified) read LiHisRS: 10.34%; MtTrpRS: -3.776%.
O=C(Nc1ccccc1CCO)c1cccc(CN2CC[C@H](O)C2)c1 read LiHisRS: 10.83%; MtTrpRS: -3.329%.
CCN1C(=O)C2(CCOCC2)c2cc(NC(=O)c3cnoc3C)ccc21 read LiHisRS: -113.7%; MtTrpRS: -1.205%.
CC(=O)c1cccc(OCC(=O)NS(=O)(=O)c2ccc(Br)s2)c1 read LiHisRS: 5.085%; MtTrpRS: -5.845%.
Cn1cc(CNC(=O)NCCOc2ccc(F)c(F)c2)cn1 read LiHisRS: 9.589%; MtTrpRS: -0.6173%.
CCNC(=O)N(C)CCCc1n[nH]c(N)c1C#N read LiHisRS: 1.613%; MtTrpRS: -0.551%.
Cc1cc(NC(=O)c2ccc(F)cc2F)n(C)n1 read LiHisRS: 5.208%; MtTrpRS: -2.374%.
CN(Cc1ccccc1)CC1(O)CCCN(CCC2CCCCC2)C1=O (stereo unspecified) read LiHisRS: 12.9%; MtTrpRS: 1.348%.
N#CCCN1CC(O)CN(C(=O)c2cccc(C(F)(F)F)c2)CC1=O (stereo unspecified) read LiHisRS: 12.24%.
Cc1nn(C)c(C)c1CN(C(=O)c1cnc(O)cn1)C(C)C read LiHisRS: 17.11%; MtTrpRS: 8.501%.
COC(=O)c1sccc1NC(=O)C1CCCN1C(=O)c1ccco1 (stereo unspecified) read LiHisRS: 2.885%; MtTrpRS: 10.62%.

4 of the entries, repeated:

SMILES	LiHisRS	MtTrpRS
Cc1ccc(N2CC3(CCN(Cc4nccn4C)C3)CC2=O)s1 (stereo unspecified)	17%	-0.9856%
CCN1C(=O)C2(CCOCC2)c2cc(NC(=O)c3cnoc3C)ccc21	-113.7%	-1.205%
CCOCCC(=O)N(C)CC1Cc2ccccc2CN1C (stereo unspecified)	6.349%	3.303%
CN(C)CC(=O)N1Cc2cc(-c3cc[nH]n3)ccc2C1c1cnco1 (stereo unspecified)	10.34%	-3.776%

Data taken from ChEMBL document CHEMBL3988442, “University of Dundee, Small-Polar-MMV Screening Library” (2021).